No constants are given. Whether binding was seen depends on the method and setting. Binding can be weak; no strength is given. For some assays here: Binding seen in cells or lysates may run through a third protein.
Assays:
[1] = target: Sterol response element binding protein 2 (SREBP2), human (human (endogenous in HepG2)) (UniProt Q12772); test: co-IP; nuclear lysates of HepG2 cells cultured in LDM1 or LDM2 for 24 h; anti-Brg1, anti-SREBP2 or pre-immune IgG, overnight, Protein A/G-plus agarose; Western blot
[2] = target: Sterol response element binding protein 2 (SREBP2), human (human (endogenous in HepG2)) (UniProt Q12772); test: Re-ChIP; sequential chromatin immunoprecipitation with two antibodies from formaldehyde cross-linked, sonicated chromatin of HepG2 cells cultured in LDM1 or LDM2; qPCR of cholesterogenic gene promoters
[3] = target: Sterol response element binding protein 2 (SREBP2), mouse (mouse (endogenous in liver)) (UniProt Q3U1N2); test: co-IP; liver nuclear lysates of C57/BL6 mice fed an HFHC diet (16 weeks) or an MCD diet (8 weeks); anti-Brg1, anti-SREBP2 or pre-immune IgG, overnight, Protein A/G-plus agarose; Western blot
[4] = target: Sterol response element binding protein 2 (SREBP2), mouse (mouse (endogenous in liver)) (UniProt Q3U1N2); test: Re-ChIP; sequential chromatin immunoprecipitation with two antibodies from formaldehyde cross-linked, sonicated liver chromatin of mice fed an HFHC or MCD diet; qPCR of cholesterogenic gene promoters
[5] = target: Sterol response element binding protein 2 (SREBP2), human (human (endogenous in HepG2)) (UniProt Q12772); test: Re-ChIP; sequential chromatin immunoprecipitation with two antibodies from formaldehyde cross-linked, sonicated chromatin of HepG2 cells cultured in LDM1 or LDM2; qPCR of cholesterogenic gene promoters; remark: listed apart in the source

Chains of the proteins cited; added tags and fusions are not shown. Lines headed by an entry give the natural chain unless they say otherwise; changes in a name come on top.
UniProt Q12772: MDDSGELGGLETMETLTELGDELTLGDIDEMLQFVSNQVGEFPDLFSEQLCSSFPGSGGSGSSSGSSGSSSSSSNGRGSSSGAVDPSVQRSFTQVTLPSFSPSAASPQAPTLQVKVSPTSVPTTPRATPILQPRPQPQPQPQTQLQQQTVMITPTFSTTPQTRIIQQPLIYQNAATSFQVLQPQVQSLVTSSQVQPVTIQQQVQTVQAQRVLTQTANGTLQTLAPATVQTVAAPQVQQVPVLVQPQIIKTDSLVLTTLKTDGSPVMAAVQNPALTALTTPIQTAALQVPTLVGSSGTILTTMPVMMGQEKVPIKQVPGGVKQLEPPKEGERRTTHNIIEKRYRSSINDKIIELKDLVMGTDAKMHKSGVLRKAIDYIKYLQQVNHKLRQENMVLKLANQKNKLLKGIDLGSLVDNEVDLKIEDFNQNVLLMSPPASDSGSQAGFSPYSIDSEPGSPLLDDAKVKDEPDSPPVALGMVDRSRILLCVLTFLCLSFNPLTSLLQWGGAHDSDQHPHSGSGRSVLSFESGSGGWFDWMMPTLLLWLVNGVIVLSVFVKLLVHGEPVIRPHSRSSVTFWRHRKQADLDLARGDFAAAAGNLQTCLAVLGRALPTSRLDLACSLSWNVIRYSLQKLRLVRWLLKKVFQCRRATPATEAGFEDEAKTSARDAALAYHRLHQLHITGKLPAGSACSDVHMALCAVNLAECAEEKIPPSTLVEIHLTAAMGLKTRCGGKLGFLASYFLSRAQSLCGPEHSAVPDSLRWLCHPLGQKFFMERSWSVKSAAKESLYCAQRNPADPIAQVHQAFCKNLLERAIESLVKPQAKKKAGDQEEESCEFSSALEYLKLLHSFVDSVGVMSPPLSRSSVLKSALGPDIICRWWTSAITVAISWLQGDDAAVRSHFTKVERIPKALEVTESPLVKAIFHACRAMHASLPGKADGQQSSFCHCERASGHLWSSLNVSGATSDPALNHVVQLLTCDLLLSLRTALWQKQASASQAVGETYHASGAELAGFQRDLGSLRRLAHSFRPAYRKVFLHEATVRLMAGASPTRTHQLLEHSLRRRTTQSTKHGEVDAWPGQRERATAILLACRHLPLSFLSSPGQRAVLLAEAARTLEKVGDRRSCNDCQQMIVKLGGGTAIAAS
UniProt Q3U1N2: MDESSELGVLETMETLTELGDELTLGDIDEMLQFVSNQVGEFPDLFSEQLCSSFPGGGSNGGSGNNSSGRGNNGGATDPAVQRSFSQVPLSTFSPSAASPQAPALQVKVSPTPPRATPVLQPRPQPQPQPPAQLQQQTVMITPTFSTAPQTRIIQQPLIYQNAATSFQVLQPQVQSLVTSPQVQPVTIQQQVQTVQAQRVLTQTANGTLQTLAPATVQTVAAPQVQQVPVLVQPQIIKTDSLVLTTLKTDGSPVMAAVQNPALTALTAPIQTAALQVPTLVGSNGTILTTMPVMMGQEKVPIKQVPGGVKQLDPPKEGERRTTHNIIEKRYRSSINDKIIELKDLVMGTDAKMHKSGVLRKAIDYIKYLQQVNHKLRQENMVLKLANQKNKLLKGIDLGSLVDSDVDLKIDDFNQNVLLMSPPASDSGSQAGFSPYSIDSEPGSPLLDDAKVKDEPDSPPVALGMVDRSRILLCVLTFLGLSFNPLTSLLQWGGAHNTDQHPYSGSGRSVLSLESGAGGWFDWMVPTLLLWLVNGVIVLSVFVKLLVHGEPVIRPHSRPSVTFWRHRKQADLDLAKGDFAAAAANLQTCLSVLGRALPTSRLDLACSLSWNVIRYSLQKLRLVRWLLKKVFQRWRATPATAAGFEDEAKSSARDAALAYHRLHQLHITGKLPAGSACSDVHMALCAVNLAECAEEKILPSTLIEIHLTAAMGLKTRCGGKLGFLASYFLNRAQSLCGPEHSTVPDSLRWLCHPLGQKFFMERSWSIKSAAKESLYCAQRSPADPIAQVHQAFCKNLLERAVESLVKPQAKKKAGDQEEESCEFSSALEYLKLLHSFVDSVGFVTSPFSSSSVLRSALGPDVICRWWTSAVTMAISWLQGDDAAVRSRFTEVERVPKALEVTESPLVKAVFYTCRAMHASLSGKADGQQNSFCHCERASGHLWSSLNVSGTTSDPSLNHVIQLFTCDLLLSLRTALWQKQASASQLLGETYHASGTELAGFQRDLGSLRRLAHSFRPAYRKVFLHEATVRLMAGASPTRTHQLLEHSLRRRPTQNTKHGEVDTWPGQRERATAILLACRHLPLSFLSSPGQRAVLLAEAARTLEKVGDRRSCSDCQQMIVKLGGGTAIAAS
UniProt P51532: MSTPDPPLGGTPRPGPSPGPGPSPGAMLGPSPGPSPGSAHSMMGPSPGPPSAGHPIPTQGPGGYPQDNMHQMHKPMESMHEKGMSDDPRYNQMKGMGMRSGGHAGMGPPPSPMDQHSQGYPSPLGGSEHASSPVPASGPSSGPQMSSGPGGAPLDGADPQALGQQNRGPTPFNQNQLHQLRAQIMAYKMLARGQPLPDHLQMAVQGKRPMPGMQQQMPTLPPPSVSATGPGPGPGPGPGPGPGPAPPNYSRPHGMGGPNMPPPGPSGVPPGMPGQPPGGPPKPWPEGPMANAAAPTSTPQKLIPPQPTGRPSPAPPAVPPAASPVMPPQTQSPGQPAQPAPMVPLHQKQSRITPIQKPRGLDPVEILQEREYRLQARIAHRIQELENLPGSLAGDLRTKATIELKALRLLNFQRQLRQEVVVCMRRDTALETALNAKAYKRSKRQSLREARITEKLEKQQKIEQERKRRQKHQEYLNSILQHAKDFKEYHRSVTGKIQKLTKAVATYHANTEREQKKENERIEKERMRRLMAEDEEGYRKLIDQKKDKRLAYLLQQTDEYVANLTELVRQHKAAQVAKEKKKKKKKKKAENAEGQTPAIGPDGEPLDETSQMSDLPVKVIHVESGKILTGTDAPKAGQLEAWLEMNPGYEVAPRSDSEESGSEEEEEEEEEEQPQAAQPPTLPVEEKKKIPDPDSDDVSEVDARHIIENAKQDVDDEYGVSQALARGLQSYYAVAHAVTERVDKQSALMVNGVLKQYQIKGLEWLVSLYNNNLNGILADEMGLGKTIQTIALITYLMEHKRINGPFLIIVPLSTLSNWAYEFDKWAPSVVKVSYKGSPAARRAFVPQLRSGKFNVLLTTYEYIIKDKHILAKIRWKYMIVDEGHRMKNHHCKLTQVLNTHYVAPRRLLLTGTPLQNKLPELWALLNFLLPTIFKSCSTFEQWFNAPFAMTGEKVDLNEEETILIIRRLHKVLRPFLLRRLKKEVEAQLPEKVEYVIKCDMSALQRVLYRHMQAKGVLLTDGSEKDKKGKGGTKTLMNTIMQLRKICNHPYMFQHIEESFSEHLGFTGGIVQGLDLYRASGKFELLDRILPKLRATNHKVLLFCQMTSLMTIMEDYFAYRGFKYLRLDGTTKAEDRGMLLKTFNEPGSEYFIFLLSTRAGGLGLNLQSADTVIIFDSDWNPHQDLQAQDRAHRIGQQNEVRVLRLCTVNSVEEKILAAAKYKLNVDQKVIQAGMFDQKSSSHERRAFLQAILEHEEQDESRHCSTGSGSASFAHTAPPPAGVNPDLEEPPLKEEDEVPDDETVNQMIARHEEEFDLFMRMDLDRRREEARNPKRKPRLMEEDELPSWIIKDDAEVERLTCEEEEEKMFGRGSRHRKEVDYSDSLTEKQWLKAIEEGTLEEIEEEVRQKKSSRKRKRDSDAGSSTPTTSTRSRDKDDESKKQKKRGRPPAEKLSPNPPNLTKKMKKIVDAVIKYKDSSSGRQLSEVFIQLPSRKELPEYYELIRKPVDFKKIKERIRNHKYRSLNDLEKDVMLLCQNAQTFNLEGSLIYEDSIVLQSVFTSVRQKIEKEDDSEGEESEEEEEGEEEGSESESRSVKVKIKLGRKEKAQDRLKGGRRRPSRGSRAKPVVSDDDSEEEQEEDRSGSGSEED
UniProt Q3TKT4: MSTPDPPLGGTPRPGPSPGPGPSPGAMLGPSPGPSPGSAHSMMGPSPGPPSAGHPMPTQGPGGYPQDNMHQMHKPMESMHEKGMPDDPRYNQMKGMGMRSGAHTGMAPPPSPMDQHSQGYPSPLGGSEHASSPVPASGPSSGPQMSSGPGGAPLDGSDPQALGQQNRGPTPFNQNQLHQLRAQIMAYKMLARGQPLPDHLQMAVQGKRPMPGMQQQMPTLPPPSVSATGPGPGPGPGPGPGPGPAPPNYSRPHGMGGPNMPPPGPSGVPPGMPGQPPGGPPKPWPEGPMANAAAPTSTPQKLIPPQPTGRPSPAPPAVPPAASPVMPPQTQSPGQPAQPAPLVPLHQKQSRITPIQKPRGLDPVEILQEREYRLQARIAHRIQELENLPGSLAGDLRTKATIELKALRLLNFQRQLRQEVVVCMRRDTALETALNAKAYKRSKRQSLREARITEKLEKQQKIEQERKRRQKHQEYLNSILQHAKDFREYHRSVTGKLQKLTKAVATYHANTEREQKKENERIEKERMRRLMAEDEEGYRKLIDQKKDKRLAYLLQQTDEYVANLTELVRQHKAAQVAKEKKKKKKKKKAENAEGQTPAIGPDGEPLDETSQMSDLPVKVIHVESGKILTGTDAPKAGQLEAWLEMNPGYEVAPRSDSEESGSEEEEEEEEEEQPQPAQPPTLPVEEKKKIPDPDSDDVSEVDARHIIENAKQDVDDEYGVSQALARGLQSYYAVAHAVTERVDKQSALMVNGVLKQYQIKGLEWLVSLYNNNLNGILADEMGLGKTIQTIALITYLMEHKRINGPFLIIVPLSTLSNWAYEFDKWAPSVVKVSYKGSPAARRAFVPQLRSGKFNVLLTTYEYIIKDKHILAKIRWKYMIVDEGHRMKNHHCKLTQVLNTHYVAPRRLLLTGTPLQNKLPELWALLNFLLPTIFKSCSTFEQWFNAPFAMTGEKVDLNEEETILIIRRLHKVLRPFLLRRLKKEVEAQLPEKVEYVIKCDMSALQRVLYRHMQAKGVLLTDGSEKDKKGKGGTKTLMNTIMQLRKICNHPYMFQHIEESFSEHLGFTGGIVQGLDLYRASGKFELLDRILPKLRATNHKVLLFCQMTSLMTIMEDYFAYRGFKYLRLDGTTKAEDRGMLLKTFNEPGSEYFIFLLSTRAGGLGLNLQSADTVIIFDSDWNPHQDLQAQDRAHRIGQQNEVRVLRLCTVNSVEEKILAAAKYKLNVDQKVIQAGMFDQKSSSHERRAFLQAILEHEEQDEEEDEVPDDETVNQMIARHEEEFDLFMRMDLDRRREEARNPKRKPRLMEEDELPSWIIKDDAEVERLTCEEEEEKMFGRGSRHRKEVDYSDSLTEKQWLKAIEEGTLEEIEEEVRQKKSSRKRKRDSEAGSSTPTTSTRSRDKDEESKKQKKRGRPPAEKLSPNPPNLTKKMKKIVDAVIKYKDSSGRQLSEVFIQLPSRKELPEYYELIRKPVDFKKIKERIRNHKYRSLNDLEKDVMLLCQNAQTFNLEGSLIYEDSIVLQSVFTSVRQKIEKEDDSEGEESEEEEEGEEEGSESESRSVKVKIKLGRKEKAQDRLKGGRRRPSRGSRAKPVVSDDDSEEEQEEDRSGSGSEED

Question: How did the binding [1] turn out when “Brahma related gene 1 (BRG1), human (from UniProt P51532 1-1647)” was run?
Answer: binds

Question: And the binding [2]?
Answer: binds

Question: Which results are given for “Brahma related gene 1 (Brg1), mouse (from UniProt Q3TKT4 1-1613)”?
Answer: binding [3]: binds; binding [4]: binds

B1: KDM3A, human (protein, UniProt Q9Y4C1 1-1321)
chain: MVLTLGESWPVLVGRRFLSLSAADGSDGSHDSWDVERVAEWPWLSGTIRAVSHTDVTKKDLKVCVEFDGESWRKRRWIEVYSLLRRAFLVEHNLVLAERKSPEISERIVQWPAITYKPLLDKAGLGSITSVRFLGDQQRVFLSKDLLKPIQDVNSLRLSLTDNQIVSKEFQALIVKHLDESHLLKGDKNLVGSEVKIYSLDPSTQWFSATVINGNPASKTLQVNCEEIPALKIVDPSLIHVEVVHDNLVTCGNSARIGAVKRKSSENNGTLVSKQAKSCSEASPSMCPVQSVPTTVFKEILLGCTAATPPSKDPRQQSTPQAANSPPNLGAKIPQGCHKQSLPEEISSCLNTKSEALRTKPDVCKAGLLSKSSQIGTGDLKILTEPKGSCTQPKTNTDQENRLESVPQALTGLPKECLPTKASSKAELEIANPPELQKHLEHAPSPSDVSNAPEVKAGVNSDSPNNCSGKKVEPSALACRSQNLKESSVKVDNESCCSRSNNKIQNAPSRKSVLTDPAKLKKLQQSGEAFVQDDSCVNIVAQLPKCRECRLDSLRKDKEQQKDSPVFCRFFHFRRLQFNKHGVLRVEGFLTPNKYDNEAIGLWLPLTKNVVGIDLDTAKYILANIGDHFCQMVISEKEAMSTIEPHRQVAWKRAVKGVREMCDVCDTTIFNLHWVCPRCGFGVCVDCYRMKRKNCQQGAAYKTFSWLKCVKSQIHEPENLMPTQIIPGKALYDVGDIVHSVRAKWGIKANCPCSNRQFKLFSKPASKEDLKQTSLAGEKPTLGAVLQQNPSVLEPAAVGGEAASKPAGSMKPACPASTSPLNWLADLTSGNVNKENKEKQPTMPILKNEIKCLPPLPPLSKSSTVLHTFNSTILTPVSNNNSGFLRNLLNSSTGKTENGLKNTPKILDDIFASLVQNKTTSDLSKRPQGLTIKPSILGFDTPHYWLCDNRLLCLQDPNNKSNWNVFRECWKQGQPVMVSGVHHKLNSELWKPESFRKEFGEQEVDLVNCRTNEIITGATVGDFWDGFEDVPNRLKNEKEPMVLKLKDWPPGEDFRDMMPSRFDDLMANIPLPEYTRRDGKLNLASRLPNYFVRPDLGPKMYNAYGLITPEDRKYGTTNLHLDVSDAANVMVYVGIPKGQCEQEEEVLKTIQDGDSDELTIKRFIEGKEKPGALWHIYAAKDTEKIREFLKKVSEEQGQENPADHDPIHDQSWYLDRSLRKRLHQEYGVQGWAIVQFLGDVVFIPAGAPHQVHNLYSCIKVAEDFVSPEHVKHCFWLTQEFRYLSQTHTNHEDKLQVKNVIYHAVKDAVAMLKASESSFGKP
Question: Which binding [5] does the source give for B1 here?
Answer: binds

Source: publication PMC7243037
